# Source: PubChem BioAssay AID493014 (National Center for Advancing Translational Sciences (NCATS), 2011)
# Some of the results follow. The main result of the screen is listed elsewhere. These columns were measured beside it and carry no call. Compounds called inactive in the main read-out are mostly missing here. Words in brackets tell the shape of the fitted curve; partial curves, single points and poor fits give uncertain potencies.
# Assay: qHTS Assay to Find Inhibitors of Chronic Active B-Cell Receptor Signaling
# Conditions: ABC-DLBCL IkBa-CBG/CBR reporter, luminescence ratio (green luciferase fused to IkBa over red control in TMD8 lymphoma cells), 4 h
# Outline: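 Doxycycline induced both beetle luciferases in TMD8 lymphoma cells; IKK-driven degradation limits the IkappaBalpha-fused green signal, while red luminescence normalises for cell number and nonspecific effects. Compounds tested up to 46 uM, 4 hrs.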
# [1] = measured here: CBR red luminescence, cell number
SMILES,AC50 [1],AC50 (measured here: IkBa-CBG green luminescence)
O=C(Nc1ccc(Cl)cc1)c1cc(-c2cccs2)on1,"6.31 µM [falling, full curve]",–
O=C(CCC(=O)N1CCOc2ccccc21)Nc1ccc(F)cc1F,"7.08 µM [falling, full curve, poor fit]",–
Cc1cccc(N2CCN(C(=O)CCS(=O)(=O)c3ccc(Br)cc3)CC2C)c1 (configuration not stated),"6.31 µM [falling, single point]",–
Cn1cc(Br)c(C(=O)NNC(=O)c2cccc(Br)c2)n1,"11.2 µM [falling, partial curve, poor fit]",–
O=C(O)c1ccccc1Nc1ccc([N+](=O)[O-])c2nonc12,"22.4 µM [rising, partial curve, poor fit]",–
Cc1cccc(NC(=O)NC(=O)c2ccccc2)n1,"1.78 µM [falling, full curve, poor fit]",–
Fc1cc(Br)ccc1NC(=S)Nc1cccnc1,"35.5 µM [rising, single point]",–
C=CCSc1nc2ccccc2n1C(=O)/C=C/c1ccc(OC)c(OC)c1,"0.562 µM [falling, full curve, poor fit]",–
O=C(NCCCCNC(=O)c1ccccn1)c1ccccn1,"5.62 µM [falling, single point]",–
COc1cccc(COC(=O)c2cc(S(=O)(=O)N3CCCCC3)ccc2N2CCOCC2)c1OC,"0.651 µM [rising, full curve, poor fit]",–
Cc1ccnc(N2CCN(C(=O)CSc3nc4ccccc4nc3N3CCCCC3)CC2)c1,"0.731 µM [rising, partial curve, poor fit]",–
Cc1cc(OC(=O)c2c(C)cc(O)cc2O)cc(O)c1C(=O)O,"20.6 µM [rising, partial curve]",–
O=C(/C=C/c1ccccc1)NC(=O)c1ccccc1O,"0.251 µM [falling, full curve]",–
O=c1c2ccccc2nc(COc2ccccc2)n1/N=C/c1cn[nH]c1-c1ccccc1,"20.6 µM [falling, single point]",–
CCOC(=O)c1c(C)c(C(=O)N(C)C2CCCCC2)c(C)n1C,"4.47 µM [rising, single point]",–
CC1CCCC(C)N1C(=O)CSc1nnc(COc2cccc3cccnc23)o1 (configuration not stated),–,"35.5 µM [rising, partial curve, poor fit]"
CCSc1nc(CC)c2c(c1C#N)CCCC2,"14.6 µM [rising, partial curve]",–
CCOC(=O)c1c(NC(=O)c2cccs2)sc(CC)c1-c1cccs1,"16.4 µM [rising, single point]",–
COc1ccc(CCNC(=O)COC(=O)CCC(=O)c2ccc(F)cc2)cc1,"35.5 µM [falling, partial curve, poor fit]",–
O=C(c1cccs1)N1CCN(Cc2ccc3c(c2)OCO3)CC1,"35.5 µM [falling, single point]",–
CC(C)(C)OCC1CO1 (configuration not stated),"25.9 µM [falling, partial curve]",–

SMILES,AC50 [1],AC50 (measured here: IkBa-CBG green luminescence)
Clc1ccccc1CNc1ncnc2c1c(-c1ccccc1)cn2-c1ccccc1,"1.58 µM [rising, partial curve, poor fit]",–
COC(=O)C1=C(CN2CCc3ccccc32)NC(=O)NC1c1cc(C)ccc1C (configuration not stated),"14.6 µM [falling, partial curve]",–
CCCNC(=O)c1ccc(N2CCC3(CC2)CC(c2cccc(Br)c2)=NO3)c(NC(=O)c2ccco2)c1,"4.61 µM [rising, partial curve, poor fit]",–
c1ccc2c(c1)CSc1sccc1C2=C1CCNCC1,"29.1 µM [falling, single point]",–
CCOC(=O)c1ccc(NC(=O)COc2ccccc2CNCCc2ccccc2)cc1,"35.5 µM [falling, single point]",–
Cc1ccc(Cl)cc1NC(=O)CN1C(=O)NC(C)(C2CC2)C1=O (configuration not stated),"20.6 µM [rising, partial curve, poor fit]",–
O=C(CSCc1ccccc1Cl)NCCSc1ccccn1,"11.2 µM [rising, single point]",–
CN(c1ccc(F)cc1)S(=O)(=O)c1ccc(Cl)c(C(=O)NCC(c2ccco2)N2CCCCC2)c1 (configuration not stated),"16.4 µM [falling, single point]",–
O=C(NCC1CCCO1)c1onc(CSc2ccccc2F)c1C(=O)O (configuration not stated),"11.2 µM [falling, single point]",–
COc1ccc(-c2cc(=Nc3c(C)n(C)n(-c4ccccc4)c3=O)c3ccccc3o2)cc1,"6.31 µM [rising, single point]",–
CCC(C)(C)NC(=O)CN(Cc1cccs1)C(=O)C(=O)Nc1ccc2c(c1)OCCO2,"3.16 µM [falling, full curve]",–
O=C1[C@@H]2C(Cc3ccc(O)cc3)NC3(C(=O)Nc4ccc(F)cc43)[C@@H]2C(=O)N1c1ccc(F)cc1 (some centres not stated),"13 µM [falling, partial curve]",–
CCC(C)(C)NC(=O)C(c1cccn1C)N(C(=O)Cn1nnc2ccccc21)c1ccc(OC)cc1OC (configuration not stated),"29.1 µM [falling, single point]",–
Cc1coc2c1c(C)cc1oc(=O)c(CC(=O)NCC(=O)N[C@H](C(=O)O)C(C)C)c(C)c12,"35.5 µM [rising, single point]",–
CCc1c(C)nc2ncnn2c1NCCc1ccc(Cl)cc1,"17.8 µM [falling, partial curve]",–
COc1ccc(NC(=S)N2CCCC(CO)C2)c(OC)c1 (configuration not stated),"20.6 µM [rising, partial curve, poor fit]",–
COc1ccc(-c2cn3cc(C(=O)NN)ccc3n2)cc1,"3.98 µM [falling, partial curve]",–
CCCc1ccc(C(=O)NC(=O)c2ccccc2O)cc1,"2.24 µM [falling, full curve, poor fit]",–
CCCNC(=O)C1CC(c2cccc(F)c2)=NO1 (configuration not stated),"14.1 µM [rising, single point]",–
COc1cc(C(=O)Nc2nnc(C(C)(C)C)s2)c([N+](=O)[O-])cc1OC,"2.31 µM [rising, partial curve]",–
O=C(COC(=O)COc1ccccc1)NCCC1=CCCCC1,"0.731 µM [rising, full curve, poor fit]",–

# Given bar-delimited: entries from further up.
SMILES | AC50 [1] | AC50 (measured here: IkBa-CBG green luminescence)
O=C(Nc1ccc(Cl)cc1)c1cc(-c2cccs2)on1 | 6.31 µM [falling, full curve] | –
O=C(CCC(=O)N1CCOc2ccccc21)Nc1ccc(F)cc1F | 7.08 µM [falling, full curve, poor fit] | –
Cc1cccc(N2CCN(C(=O)CCS(=O)(=O)c3ccc(Br)cc3)CC2C)c1 (configuration not stated) | 6.31 µM [falling, single point] | –
